Earlier results, collected in US20120178147A1, “MICROBIAL CULTURES AND METHODS FOR ANAEROBIC BIOREMEDIATION” (priority 2009, published 2012).

Key:
[1] = cited from earlier work
[2] = cited from earlier work; remark: listed apart in the source

Structure (SMILES) | adsorbed to the sludge ([1]; German wastewater treatment plant (Bester, 2003)) | removed ([1]; continuous activated sludge laboratory study (Federle et al., 2002)) | removal ([2]; shake flask and bench scale CFAS experiments (Gledhill, 1975)) | removed during wastewater treatment ([2]; sorption and biodegradation (Consortium, 2002)) [%]
Oc1cc(Cl)ccc1Oc1ccc(Cl)cc1Cl [TCS, 5-chloro-2-[2,4-dichloro-phenoxy]-phenol] | approximately 30% | more than 80% |  | 
O=C(Nc1ccc(Cl)cc1)Nc1ccc(Cl)c(Cl)c1 [TCC, 3-(4-chlorophenyl)-1-(3,4-dichlorphenyl) urea] |  |  | up to 96% | 98
